Experimental data reported in paper PMC10264389.
No constants are given. Whether binding was seen depends on the method and setting. In cells and extracts the contact can be indirect. Some entries that bind do so weakly or less than the wild type. Where a sequence is shown, tags or fusion partners need not be part of it.

T1: TMX4-V5 (UniProt Q9H1E5)
T1 sequence: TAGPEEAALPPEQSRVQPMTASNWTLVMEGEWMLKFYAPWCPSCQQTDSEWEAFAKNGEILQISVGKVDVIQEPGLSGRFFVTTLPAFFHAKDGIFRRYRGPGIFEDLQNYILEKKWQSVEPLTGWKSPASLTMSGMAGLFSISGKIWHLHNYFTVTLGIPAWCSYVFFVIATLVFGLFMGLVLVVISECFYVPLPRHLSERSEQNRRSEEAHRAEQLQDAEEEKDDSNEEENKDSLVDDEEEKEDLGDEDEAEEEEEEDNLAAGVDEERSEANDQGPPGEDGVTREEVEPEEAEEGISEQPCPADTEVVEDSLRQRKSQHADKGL

T2: HALO-NESPRIN3α (UniProt Q4FZC9)
T2 sequence: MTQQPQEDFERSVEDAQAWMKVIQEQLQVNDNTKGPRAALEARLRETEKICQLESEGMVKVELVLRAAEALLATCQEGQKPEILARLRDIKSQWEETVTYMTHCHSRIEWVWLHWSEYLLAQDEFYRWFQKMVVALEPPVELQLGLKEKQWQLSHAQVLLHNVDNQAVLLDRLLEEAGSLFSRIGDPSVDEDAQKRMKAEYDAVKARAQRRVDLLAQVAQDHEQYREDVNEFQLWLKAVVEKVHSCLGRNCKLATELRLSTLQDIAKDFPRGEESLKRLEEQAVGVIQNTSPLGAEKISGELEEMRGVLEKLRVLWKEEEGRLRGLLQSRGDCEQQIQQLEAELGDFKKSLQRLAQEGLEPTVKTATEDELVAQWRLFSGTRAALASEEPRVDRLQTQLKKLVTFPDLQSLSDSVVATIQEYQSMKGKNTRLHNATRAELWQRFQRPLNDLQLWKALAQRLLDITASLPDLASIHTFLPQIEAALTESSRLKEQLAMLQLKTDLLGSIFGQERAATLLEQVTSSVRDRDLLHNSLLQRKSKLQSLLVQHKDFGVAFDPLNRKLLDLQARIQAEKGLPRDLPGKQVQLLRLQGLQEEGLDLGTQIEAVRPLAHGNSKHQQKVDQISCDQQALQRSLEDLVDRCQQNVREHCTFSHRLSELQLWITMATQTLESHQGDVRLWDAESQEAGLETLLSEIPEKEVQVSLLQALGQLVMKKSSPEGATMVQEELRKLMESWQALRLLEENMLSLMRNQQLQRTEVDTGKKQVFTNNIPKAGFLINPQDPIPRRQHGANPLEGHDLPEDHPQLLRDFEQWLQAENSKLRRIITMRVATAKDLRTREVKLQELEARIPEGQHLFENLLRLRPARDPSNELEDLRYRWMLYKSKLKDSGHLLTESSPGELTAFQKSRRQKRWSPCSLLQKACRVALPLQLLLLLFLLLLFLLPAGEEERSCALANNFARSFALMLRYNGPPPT


Columns and labels:
TMX4-V5 = molecular target: T1, TMX4-V5; test: co-IP; HEK293 co-transfected with HALO-NESPRIN3α, GFP-SUN1 and TMX4-V5 or TMX4C67A-V5; immunoisolation from lysates with anti-V5 antibody; non-reducing gel; western blot with anti-V5, anti-HALO and anti-GFP; mixed disulfides
HALO-NESPRIN3α = molecular target: T2, HALO-NESPRIN3α; test: co-IP; HEK293 co-transfected with HALO-NESPRIN3α, GFP-SUN1 and TMX4-V5 or TMX4C67A-V5; HALO-NESPRIN3α isolated with HALO-Trap agarose beads, 2 h at 4 °C; non-reducing and reducing gels; western blot with anti-V5 and anti-HALO

Binder	binding (TMX4-V5)	binding (HALO-NESPRIN3α)
HALO-NESPRIN3α (protein, UniProt Q4FZC9 1-975) MTQQPQEDFERSVEDAQAWMKVIQEQLQVNDNTKGPRAALEARLRETEKICQLESEGMVKVELVLRAAEALLATCQEGQKPEILARLRDIKSQWEETVTYMTHCHSRIEWVWLHWSEYLLAQDEFYRWFQKMVVALEPPVELQLGLKEKQWQLSHAQVLLHNVDNQAVLLDRLLEEAGSLFSRIGDPSVDEDAQKRMKAEYDAVKARAQRRVDLLAQVAQDHEQYREDVNEFQLWLKAVVEKVHSCLGRNCKLATELRLSTLQDIAKDFPRGEESLKRLEEQAVGVIQNTSPLGAEKISGELEEMRGVLEKLRVLWKEEEGRLRGLLQSRGDCEQQIQQLEAELGDFKKSLQRLAQEGLEPTVKTATEDELVAQWRLFSGTRAALASEEPRVDRLQTQLKKLVTFPDLQSLSDSVVATIQEYQSMKGKNTRLHNATRAELWQRFQRPLNDLQLWKALAQRLLDITASLPDLASIHTFLPQIEAALTESSRLKEQLAMLQLKTDLLGSIFGQERAATLLEQVTSSVRDRDLLHNSLLQRKSKLQSLLVQHKDFGVAFDPLNRKLLDLQARIQAEKGLPRDLPGKQVQLLRLQGLQEEGLDLGTQIEAVRPLAHGNSKHQQKVDQISCDQQALQRSLEDLVDRCQQNVREHCTFSHRLSELQLWITMATQTLESHQGDVRLWDAESQEAGLETLLSEIPEKEVQVSLLQALGQLVMKKSSPEGATMVQEELRKLMESWQALRLLEENMLSLMRNQQLQRTEVDTGKKQVFTNNIPKAGFLINPQDPIPRRQHGANPLEGHDLPEDHPQLLRDFEQWLQAENSKLRRIITMRVATAKDLRTREVKLQELEARIPEGQHLFENLLRLRPARDPSNELEDLRYRWMLYKSKLKDSGHLLTESSPGELTAFQKSRRQKRWSPCSLLQKACRVALPLQLLLLLFLLLLFLLPAGEEERSCALANNFARSFALMLRYNGPPPT	binds	
TMX4-V5 (enzyme, UniProt Q9H1E5 24-349) TAGPEEAALPPEQSRVQPMTASNWTLVMEGEWMLKFYAPWCPSCQQTDSEWEAFAKNGEILQISVGKVDVIQEPGLSGRFFVTTLPAFFHAKDGIFRRYRGPGIFEDLQNYILEKKWQSVEPLTGWKSPASLTMSGMAGLFSISGKIWHLHNYFTVTLGIPAWCSYVFFVIATLVFGLFMGLVLVVISECFYVPLPRHLSERSEQNRRSEEAHRAEQLQDAEEEKDDSNEEENKDSLVDDEEEKEDLGDEDEAEEEEEEDNLAAGVDEERSEANDQGPPGEDGVTREEVEPEEAEEGISEQPCPADTEVVEDSLRQRKSQHADKGL		binds
